Among the data in PubChem BioAssay AID256 (DTP/NCI, 2004) are survivor count and T/C values, retold here.

The list does not hold the whole screen: it is rich in T/C values a quarter to a half above the control, in often repeated tests (any T/C) and in doses without a T/C. Other doses and runs of a compound stand elsewhere. T/C gives the treated animals as a percentage of the vehicle group. Some entries give survivors of the animals treated and no T/C: the source files T/C as zero there, which appears to mark a toxic dose or a test without result, not a measured value. Some survivor counts are full or nearly so, which does not show that the dose was tolerated: the source hardly ever lists a survival T/C far under the control, and the zero likely stands for such cases as well. Survivors were counted at the toxicity check, usually on the fifth day, unless a day is given; later deaths do not show. Schedule codes are those of the source, taken here to give the interval after Q, in days (D) or hours (H), and the number of doses after X. Some entries were tested several times; the results are listed from low to high. For survival time, the PubChem record calls one and a half times the control and up active, and a quarter to a half above the control has no call in these data; cut-offs in other NCI protocols can differ.

In the assay the test system is CD2F1 mice, L1210 leukemia ip, survival T/C. Briefly: NCI In Vivo Anticancer Drug Screen. Data for tumor model L1210 Leukemia (intraperitoneal) in CD2F1 (CDF1) mice. Conditions: higher T/C = longer survival. Here is the method: The antitumor activity of compounds was measured in mice bearing transplantable tumors. Survival or tumor size were measured and the results are expressed as the measurement made in the treated group (T) divided by the measurement made in the vehicle treated control group (C). The tumor model used in this assay is L1210 Leukemia (intraperitoneal) in CD2F1 (CDF1) mice

[1] abbreviates: T/C endpoint: mean survival time, dose: 400.0 mg/kg/injection, schedule: Q01DX009 (ip), vehicle: saline with Tween-80.
The mark [2] stands for this setting: T/C endpoint: mean survival time, dose: 100.0 mg/kg/injection, schedule: Q01DX009 (ip), vehicle: saline.
Where [3] appears, read: T/C endpoint: mean survival time, dose: 200.0 mg/kg/injection, schedule: Q01DX001 (ip), vehicle: saline.
Setting [4] is: T/C endpoint: mean survival time, dose: 400.0 mg/kg/injection, schedule: Q01DX001 (ip), vehicle: saline.

With `c1ccc(CC23CCCCC2N3)cc1` (configuration not stated), the survivor count (T/C endpoint: mean survival time, dose: 400.0 mg/kg/injection, schedule: Q01DX001 (ip), vehicle: saline sonified) is 0 of 6.
As to `N=C(N)SCSC(=N)N`, the survivor count (T/C endpoint: mean survival time, dose: 400.0 mg/kg/injection, schedule: Q04DX003 (ip), vehicle: saline) is reported as 3 of 6.
For `O=c1[nH]cnc2c1nnn2C1OC(CO)C(O)C1O` (configuration not stated), the T/C is, setting by setting: (T/C endpoint: median survival time, dose: 50.0 mg/kg/injection, schedule: Q01DX005 (ip), vehicle: saline) 133 % of control; (T/C endpoint: median survival time, dose: 72.0 mg/kg/injection, schedule: Q01DX005 (ip), vehicle: saline) 132 % of control; (T/C endpoint: median survival time, dose: 100.0 mg/kg/injection, schedule: Q01DX005 (ip), vehicle: saline) 133 and 140 % of control; (T/C endpoint: median survival time, dose: 120.0 mg/kg/injection, schedule: Q01DX005 (ip), vehicle: saline) 142 % of control; (T/C endpoint: median survival time, dose: 144.0 mg/kg/injection, schedule: Q01DX005 (ip), vehicle: suspension in saline) 141 % of control; (T/C endpoint: median survival time, dose: 200.0 mg/kg/injection, schedule: Q01DX005 (ip), vehicle: saline) 143 % of control. In addition, the T/C reads like this: (T/C endpoint: median survival time, dose: 240.0 mg/kg/injection, schedule: Q01DX005 (ip), vehicle: suspension in saline) 138 % of control; (T/C endpoint: median survival time, dose: 333.3 mg/kg/injection, schedule: Q01DX005 (ip), vehicle: saline) 148 % of control; (T/C endpoint: median survival time, dose: 400.0 mg/kg/injection, schedule: Q01DX005 (ip), vehicle: saline) 134 % of control; (T/C endpoint: median survival time, dose: 555.5 mg/kg/injection, schedule: Q01DX005 (ip), vehicle: saline) 144 % of control. The survivor count by setting is: (T/C endpoint: median survival time, dose: 666.6 mg/kg/injection, schedule: Q01DX005 (ip), vehicle: suspension in saline) 6 of 6; (T/C endpoint: median survival time, dose: 800.0 mg/kg/injection, schedule: Q01DX005 (ip), vehicle: saline) 5 of 6; (T/C endpoint: median survival time, dose: 1111.1 mg/kg/injection, schedule: Q01DX005 (ip), vehicle: suspension in saline) 5 of 6.
As to `C1=CC2CC3(OCCO3)C2C1` (configuration not stated), under setting [1], the survivor count was 6 of 6.
`Nc1nc(Cl)nc2c1ncn2C1CC(O)C(CO)O1` (configuration not stated): the T/C reads like this: (T/C endpoint: median survival time, dose: 3.12 mg/kg/injection, schedule: Q01DX009 (ip), vehicle: Klucel (hydroxypropylcellulose) (HPC)) 128 % of control; (T/C endpoint: median survival time, dose: 6.25 mg/kg/injection, schedule: Q01DX009 (ip), vehicle: Klucel (hydroxypropylcellulose) (HPC)) 144 % of control. Also, the survivor count (T/C endpoint: median survival time, dose: 120.0 mg/kg/injection, schedule: Q03HX009 (ip), vehicle: saline) is on record as 0 of 6 on day 4.
In the case of `Cc1cccc(CN=C(N)CCl)n1`, the survivor count (T/C endpoint: mean survival time, dose: 400.0 mg/kg/injection, schedule: Q04DX002 (ip), vehicle: saline) is listed as 0 of 3.
Turning to `CC1=C2C(=O)[C@H]3[C@@H](CC=C4C[C@@H](O)CC[C@@]43C)[C@@H]2CC[C@]12O[C@@H]1C[C@H](C)CN[C@H]1[C@H]2C`, the survivor count (T/C endpoint: mean survival time, dose: 100.0 mg/kg/injection, schedule: Q01DX001 (ip), vehicle: saline with Tween-80) is given as 6 of 6.
`CCN(CC)C(C)C(=O)Nc1c(C)cccc1Cl` (configuration not stated): the survivor count by setting is: (T/C endpoint: mean survival time, dose: 50.0 mg/kg/injection, schedule: Q01DX009 (ip), vehicle: saline) 6 of 6; under setting [2], 6 of 6; under setting [3], 0 of 6; under setting [4], 0 of 6.
For the molecule `O=C(NNC(=S)Nc1cccc(C(F)(F)F)c1)c1ccncc1`, the survivor count (T/C endpoint: mean survival time, dose: 50.0 mg/kg/injection, schedule: Q01DX009 (ip), vehicle: saline with Tween-80) is 3 of 3; the survivor count (T/C endpoint: mean survival time, dose: 100.0 mg/kg/injection, schedule: Q01DX009 (ip), vehicle: saline with Tween-80) is reported as 3 of 3; the survivor count (T/C endpoint: mean survival time, dose: 200.0 mg/kg/injection, schedule: Q01DX009 (ip), vehicle: saline with Tween-80) is listed as 3 of 3; the survivor count (T/C endpoint: mean survival time, dose: 400.0 mg/kg/injection, schedule: Q04DX002 (ip), vehicle: saline with Tween-80) is listed as 2 of 3.
On to `COc1cc2cc(c1Cl)N1CC(O)C(C)(O)C(=O)NC(C)C(=O)OC(CC1=O)C1(C)OC1C(C)C1CC(O)(NC(=O)O1)C(OC)/C=C\C=C(\C)C2OC` (configuration not stated), for which the T/C (T/C endpoint: median survival time, dose: 16.0 micrograms/kg/injection, schedule: Q01DX009 (ip), vehicle: distilled water + alcohol) is 131 % of control.
As to `[CH3][Sn]1([CH3])[O]C2C(CO)OC(n3ccc4c(N)ncnc43)C2[O]1` (configuration not stated), the survivor count by setting is: (T/C endpoint: mean survival time, dose: 6.25 mg/kg/injection, schedule: Q01DX005 (ip), vehicle: other) 6 of 6; (T/C endpoint: mean survival time, dose: 12.5 mg/kg/injection, schedule: Q01DX005 (ip), vehicle: other) 0 of 6 and 4 of 6; (T/C endpoint: mean survival time, dose: 25.0 mg/kg/injection, schedule: Q01DX005 (ip), vehicle: other) 0 of 6; (T/C endpoint: mean survival time, dose: 50.0 mg/kg/injection, schedule: Q01DX005 (ip), vehicle: other) 0 of 6; (T/C endpoint: mean survival time, dose: 100.0 mg/kg/injection, schedule: Q01DX005 (ip), vehicle: other) 0 of 6; (T/C endpoint: mean survival time, dose: 200.0 mg/kg/injection, schedule: Q01DX005 (ip), vehicle: other) 0 of 6.
With `O=S(=O)(/C(=C\c1ccccc1)c1ccccc1)c1ccccc1`, the survivor count under setting [2] was 6 of 6.
In the case of `OCCOCCN1CCN(CCCN2c3ccccc3Sc3ccc(C(F)(F)F)cc32)CC1`, the survivor count is on record as 6 of 6 (T/C endpoint: mean survival time, dose: 12.5 mg/kg/injection, schedule: Q01DX009 (ip), vehicle: saline); 0 of 6 (T/C endpoint: mean survival time, dose: 25.0 mg/kg/injection, schedule: Q01DX009 (ip), vehicle: saline); 0 of 6 (T/C endpoint: mean survival time, dose: 150.0 mg/kg/injection, schedule: Q01DX001 (ip), vehicle: saline); 0 of 6 (T/C endpoint: mean survival time, dose: 300.0 mg/kg/injection, schedule: Q01DX001 (ip), vehicle: saline). Further, the T/C (T/C endpoint: mean survival time, dose: 75.0 mg/kg/injection, schedule: Q01DX001 (ip), vehicle: saline) is 132 % of control.
As to `O=[N+]([O-])c1ccc(SC2CCC(Cl)C3CCCCC23)c([N+](=O)[O-])c1` (configuration not stated), the survivor count (T/C endpoint: mean survival time, dose: 200.0 mg/kg/injection, schedule: Q04DX002 (ip), vehicle: saline with Tween-80) is recorded as 3 of 3.
As for `Clc1ccc(Br)c2c1CCC2`, the survivor count (T/C endpoint: mean survival time, dose: 400.0 mg/kg/injection, schedule: Q04DX003 (ip), vehicle: acetone) is listed as 2 of 6.
With `CC(=O)C1COC(O)C1C` (configuration not stated), the survivor count runs as follows: (T/C endpoint: mean survival time, dose: 100.0 mg/kg/injection, schedule: Q01DX001 (ip), vehicle: saline) 0 of 6; under setting [3], 0 of 6; under setting [4], 0 of 6.
Regarding `Nc1cc(Cl)c(O)c(Cl)c1`, the survivor count by setting is: (T/C endpoint: mean survival time, dose: 200.0 mg/kg/injection, schedule: Q01DX001 (ip), vehicle: saline with Tween-80) 1 of 6; (T/C endpoint: mean survival time, dose: 400.0 mg/kg/injection, schedule: Q01DX001 (ip), vehicle: saline with Tween-80) 0 of 6.
As for `NC(Cc1c[nH]c2ccc(N(CCCl)CCCl)cc12)C(=O)O` (configuration not stated), the T/C (T/C endpoint: mean survival time, dose: 0.25 mg/kg/injection, schedule: Q01DX010 (ip), vehicle: saline) is 142 % of control.
`CCC1(C)CCC2=C(CCC3C(C)(C(=O)O)CCCC23C)C1` (configuration not stated): the survivor count under setting [1] is 3 of 6.
`CCN(N=O)C(=O)Nc1ccc(C2CC(=O)N(C)C2=O)cc1` (configuration not stated): for the setting “T/C endpoint: mean survival time, dose: 200.0 mg/kg/injection, schedule: Q01DX001 (ip), vehicle: distilled water + Tween-80”, the T/C is 126 % of control. Besides, the survivor count (T/C endpoint: mean survival time, dose: 400.0 mg/kg/injection, schedule: Q01DX001 (ip), vehicle: distilled water + Tween-80) was 0 of 6 and 2 of 6.
On to `CCc1ccc(C2=C(O)C(=O)C(c3ccccc3)=C(O)C2=O)cc1`, for which the survivor count (T/C endpoint: mean survival time, dose: 110.0 mg/kg/injection, schedule: Q01DX009 (ip), vehicle: acetone) is recorded as 0 of 6; the survivor count (T/C endpoint: mean survival time, dose: 170.0 mg/kg/injection, schedule: Q01DX009 (ip), vehicle: acetone) is 0 of 6; the survivor count (T/C endpoint: mean survival time, dose: 225.0 mg/kg/injection, schedule: Q01DX009 (ip), vehicle: acetone) was 0 of 6.
With `CCOC(=O)N1CCc2cc(OC)c(OC)cc2C1=C(c1ccccc1)c1ccccc1`, where the note is “T/C endpoint: mean survival time, dose: 200.0 mg/kg/injection, schedule: Q04DX003 (ip), vehicle: saline with Tween-80”, the survivor count is 6 of 6.
